Experimental data reported in article PMC3795256.
These are yes or no findings as the source states them, for the method shown. In cells and extracts the contact can be indirect. A yes stands for co-enrichment or nearness to the bait. Other partners may have been found. For part of these data: Sequences can lack the tags named with a protein. Blank lines part the entries; values can stand above or below the binder they belong to.

Legend:
[1] = molecular target: FLAG-tagged Prx4 (peroxiredoxin 4) (human) (UniProt Q13162); assay: affinity purification with mass spectrometry; FLAG-tagged Prx4 expressed in HEK293 cells, immunoprecipitated with anti-FLAG, eluted with FLAG peptides, digested with Lys-C, direct nano-flow LC-MS/MS
[2] = molecular target: T1, FLAG-tagged Prx4 (peroxiredoxin 4) (human), Q13162; assay: as above; details: remark: other sources report otherwise
T1 chain: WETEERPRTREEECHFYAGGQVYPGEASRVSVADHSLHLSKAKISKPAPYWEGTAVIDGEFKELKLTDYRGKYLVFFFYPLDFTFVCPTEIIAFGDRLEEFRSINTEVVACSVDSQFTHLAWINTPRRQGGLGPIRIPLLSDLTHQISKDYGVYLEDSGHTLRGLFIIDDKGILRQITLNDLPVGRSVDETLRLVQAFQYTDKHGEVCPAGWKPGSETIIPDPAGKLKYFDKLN

binding [1]: binds
B1: P5 (protein, UniProt Q15084 20-440)
chain: LYSSSDDVIELTPSNFNREVIQSDSLWLVEFYAPWCGHCQRLTPEWKKAATALKDVVKVGAVDADKHHSLGGQYGVQGFPTIKIFGSNKNRPEDYQGGRTGEAIVDAALSALRQLVKDRLGGRSGGYSSGKQGRSDSSSKKDVIELTDDSFDKNVLDSEDVWMVEFYAPWCGHCKNLEPEWAAAASEVKEQTKGKVKLAAVDATVNQVLASRYGIRGFPTIKIFQKGESPVDYDGGRTRSDIVSRALDLFSDNAPPPELLEIINEDIAKRTCEEHQLCVVAVLPHILDTGAAGRNSYLEVLLKLADKYKKKMWGWLWTEAGAQSELETALGIGGFGYPAMAAINARKMKFALLKGSFSEQGINEFLRELSFGRGSTAPVGGGAFPTIVEREPWDGRDGELPVEDDIDLSDVELDDLGKDEL

binding [1]: binds
B2: ERp44 (protein, UniProt Q9BS26 30-406)
chain: EITSLDTENIDEILNNADVALVNFYADWCRFSQMLHPIFEEASDVIKEEFPNENQVVFARVDCDQHSDIAQRYRISKYPTLKLFRNGMMMKREYRGQRSVKALADYIRQQKSDPIQEIRDLAEITTLDRSKRNIIGYFEQKDSDNYRVFERVANILHDDCAFLSAFGDVSKPERYSGDNIIYKPPGHSAPDMVYLGAMTNFDVTYNWIQDKCVPLVREITFENGEELTEEGLPFLILFHMKEDTESLEIFQNEVARQLISEKGTINFLHADCDKFRHPLLHIQKTPADCPVIAIDSFRHMYVFGDFKDVLIPGKLKQFVFDLHSGKLHREFHHGPDPTDTAPGEQAQDVASSPPESSFQKLAPSEYRYTLLRDRDEL

binding [2]: binds
B3: ERp72, P13667 21-645 (protein)
chain: VAGAEGPDEDSSNRENAIEDEEEEEEEDDDEEEDDLEVKEENGVLVLNDANFDNFVADKDTVLLEFYAPWCGHCKQFAPEYEKIANILKDKDPPIPVAKIDATSASVLASRFDVSGYPTIKILKKGQAVDYEGSRTQEEIVAKVREVSQPDWTPPPEVTLVLTKENFDEVVNDADIILVEFYAPWCGHCKKLAPEYEKAAKELSKRSPPIPLAKVDATAETDLAKRFDVSGYPTLKIFRKGRPYDYNGPREKYGIVDYMIEQSGPPSKEILTLKQVQEFLKDGDDVIIIGVFKGESDPAYQQYQDAANNLREDYKFHHTFSTEIAKFLKVSQGQLVVMQPEKFQSKYEPRSHMMDVQGSTQDSAIKDFVLKYALPLVGHRKVSNDAKRYTRRPLVVVYYSVDFSFDYRAATQFWRSKVLEVAKDFPEYTFAIADEEDYAGEVKDLGLSESGEDVNAAILDESGKKFAMEPEEFDSDTLREFVTAFKKGKLKPVIKSQPVPKNNKGPVKVVVGKTFDSIVMDPKKDVLIEFYAPWCGHCKQLEPVYNSLAKKYKGQKGLVIAKMDATANDVPSDRYKVEGFPTIYFAPSGDKKNPVKFEGGDRDLEHLSKFIEEHATKLSRTKEEL
